Assay results as given in patent publication US11458433B2, “Absorbent and process for selectively removing hydrogen sulfide” (BASF SE, priority 2017, dated 2022).

Assays:
[1] = Loading and stripping experiment with CO2 (loading capacity, cyclic capacity); assay type: physicochemical; settings: 30% by weight amine in water; for CO2 loading capacity after loading: 40° C., ambient pressure, 8 L (STP)/h CO2, about 4 h; for cyclic CO2 capacity: difference of loading after loading and after stripping; for CO2 loading capacity after stripping: stripped at 80° C. with N2 8 L (STP)/h, 60 min
[2] = Loading and stripping experiment with H2S (loading capacity, cyclic capacity); assay type: physicochemical; settings: 30% by weight amine in water; for H2S loading capacity after loading: 40° C., ambient pressure, 8 L (STP)/h H2S, about 4 h; for cyclic H2S capacity: difference of loading after loading and after stripping; for H2S loading capacity after stripping: stripped at 80° C. with N2 8 L (STP)/h, 60 min

Compound | CO2 loading capacity after loading [1] [molCO2/molamine] | cyclic CO2 capacity [1] [molCO2/molamine] | CO2 loading capacity after stripping [1] [molCO2/molamine] | H2S loading capacity after loading [2] [molH2S/molamine] | cyclic H2S capacity [2] [molH2S/molamine] | H2S loading capacity after stripping [2] [molH2S/molamine]
CC(C)(C)NCCOCCO [TBAEE, 2-(2-tert-butylaminoethoxy)ethanol] | 0.97 | 0.73 | 0.24 | 0.92 | 0.67 | 0.25
CC(C)(C)NCCN1CCCC1=O [TBAEPY, 1-[2-(tert-butylamino)ethyl]pyrrolidin-2-one] | 1.02 | 0.89 | 0.13 | 0.85 | 0.61 | 0.24
